In paper PMC5432348 one finds binding data, which are given here for one substance.

The target in the test is T1, tetraspanin Co-029/tspan8 (UniProt P19075).
T1 sequence: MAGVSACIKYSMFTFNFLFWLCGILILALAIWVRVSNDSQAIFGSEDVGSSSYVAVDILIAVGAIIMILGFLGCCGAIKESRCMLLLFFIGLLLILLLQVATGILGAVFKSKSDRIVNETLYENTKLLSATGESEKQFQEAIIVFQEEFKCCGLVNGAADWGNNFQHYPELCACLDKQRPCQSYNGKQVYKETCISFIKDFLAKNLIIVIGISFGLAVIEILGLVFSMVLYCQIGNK
Nature of the test: cross-linking; intact cells incubated 30 min at 4°C with 0.7 mM membrane-impermeant BS3 in PBS; lysis in 1% Triton X-100; immunoprecipitation with Co-029 mAb; the ~200-220 kDa cross-linked product analysed by mass spectrometry.

These are yes or no findings as the source states them, for the method shown. Binding seen in cells or lysates may run through a third protein. Binding calls can cover weak binding; strength is not graded here.

Turning to “E-cadherin (human (endogenous in Isreco1))”, the binding entry was “binds”.
